These are yes or no findings as the source states them, for the method shown. Binding seen in cells or lysates may run through a third protein. Some results given as binding are weak or reduced against the parent protein; the word gives no strength.
Molecular target: TSPYL5 transfected into A549 cells (human) (UniProt Q86VY4)
Experiment: co-IP; A549 cells co-transfected with TSPYL5, with TSPY1 overexpressed or knocked down; precipitation with a TSPYL5 antibody, blot for USP7

By UniProt entry, the sequences of proteins in these tests, tags left out.
UniProt Q86VY4: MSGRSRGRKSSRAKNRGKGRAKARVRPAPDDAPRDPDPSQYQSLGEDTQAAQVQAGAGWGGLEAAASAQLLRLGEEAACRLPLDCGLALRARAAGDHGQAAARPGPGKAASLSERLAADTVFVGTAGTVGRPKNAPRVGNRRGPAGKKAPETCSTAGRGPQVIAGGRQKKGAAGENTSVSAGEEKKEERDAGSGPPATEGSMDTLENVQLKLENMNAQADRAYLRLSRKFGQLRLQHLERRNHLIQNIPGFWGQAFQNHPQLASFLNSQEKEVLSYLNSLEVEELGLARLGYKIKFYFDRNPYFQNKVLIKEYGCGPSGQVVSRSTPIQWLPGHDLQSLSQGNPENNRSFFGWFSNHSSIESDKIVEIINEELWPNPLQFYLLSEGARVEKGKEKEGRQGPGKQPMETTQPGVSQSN

binding: binds
Substance: USP7 of A549 cells (from UniProt Q93009 1-1102) (enzyme)

— PMC5945610
